PubChem BioAssay AID504791 | Drosophila RNAi Screening Center – 2011
The screen tested about 23,000 reagents; below is an unselected part of those with a known target gene and a result. Of all reagents, 199 (0.86%) got an active call. 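Plate-scaled ratios behind the calls are not deposited; printed light signals are raw; many rows marked increased or decreased are still called inactive.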 Entries without a mark were called inactive. Reagents against one gene are numbered here. Not given: the direction of the score.

- Screen: 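Genes of the fly required for silencing by miRNA, siRNA or endo-siRNA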 (primary screen)
- System: Drosophila S2-derived reporter cells
- Reagents: long dsRNA against Drosophila genes, about 150-250 ng dsRNA per well (siRNA assay); about 80-120 ng (miRNA assay)
- Duration: about 5 days (siRNA assay); about 4 days (miRNA assay)
- Conditions: copper sulfate induction of reporters: 25 µM (siRNA assay); 200 mM stated (miRNA assay), 1-2 days before reading
- Measurement: 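Dual luciferase assay: Renilla to firefly signal ratio in each well, scaled to the mean ratio of its plate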
- Units: stable assay Renilla, run 1 in luminescence; stable assay firefly, run 1 in luminescence
- Call rule: 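First-pass picks had plate-scaled ratios over 1.5 for the siRNA assay, over 1.6 for the miRNA assay, or under 0.6; two distinct dsRNAs had to score alike on retest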

With CG12012, what does the deposit list?
stable assay Renilla, run 1: 6520; stable assay firefly, run 1: 3.99e5

Which result is listed for para (paralytic) #1?
stable assay Renilla, run 1: 4792; stable assay firefly, run 1: 3.82e5

What is on record for para (paralytic) #2?
stable assay Renilla, run 1: 6266; stable assay firefly, run 1: 5.99e5

Which result is listed for COX6B (Cytochrome c oxidase subunit 6B)?
stable assay Renilla, run 1: 7043; stable assay firefly, run 1: 5.37e5

For Zmynd8 (Zinc finger MYND-type containing 8), how do the results read?
stable assay Renilla, run 1: 8318; stable assay firefly, run 1: 3.81e5

With Acp32CD (Accessory gland protein 32CD), what does the deposit list?
stable assay Renilla, run 1: 7151; stable assay firefly, run 1: 3.84e5

How did the screen score CG15144?
stable assay Renilla, run 1: 7031; stable assay firefly, run 1: 3.48e5

For CG4586, how do the results read?
stable assay Renilla, run 1: 8148; stable assay firefly, run 1: 5.15e5

Which result is listed for CG2310?
stable assay Renilla, run 1: 7148; stable assay firefly, run 1: 5.42e5

What did the screen give for Rrp40 (Ribosomal RNA processing 40)?
stable assay Renilla, run 1: 5936; stable assay firefly, run 1: 4.32e5

Which result is listed for CG14174?
stable assay Renilla, run 1: 5223; stable assay firefly, run 1: 2.64e5

Which result is listed for CG13405?
stable assay Renilla, run 1: 6215; stable assay firefly, run 1: 4.44e5

Limited to “stable assay Renilla, run 1”, for 2 of the entries above:
para (paralytic) #1 = 4792
para (paralytic) #2 = 6266
